Assay results: patent US20180311311A1 (Pieris, published 2018)
No constants are given. Whether binding was seen depends on the method and setting. Some binding calls cover weakened binding; strength is not graded here.

Columns and labels:
Cynomolgus hepcidin 25 = target: T1, Cynomolgus hepcidin 25 (Cynomolgus monkey, UniProt A7XEI3 60-84, not fully specified); experiment: SPR (Biacore T200), mutein immobilized on CM5 chip, 1:1 binding model
T1 construct: mature; also called Cynomolgous hepcidin 25
T1 peptide: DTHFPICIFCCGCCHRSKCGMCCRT

[1] = target: T2, Hepcidin-25 containing a C-terminal biotin group (human); experiment: solution competition ECL assay, 25 pM Hepcidin-25-C-bio, competitor 12B9 on the plate
T2 sequence (peptide, C-terminal biotin group): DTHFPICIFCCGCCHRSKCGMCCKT

Row | Binder | binding (Cynomolgus hepcidin 25) | binding [1]
1 | hepcidin-specific lipocalin mutein (hNGAL mutein) having the sequence of SEQ ID NO: 1 (designed binder, also called the lipocalin mutein; hNGAL mutein having a free cysteine residue at amino acid position 87) QDSTSDLIPAPPLSKVPLQQNFQDNQFHGKWYVVGLAGNEVLREDKDPMKMWATIYELKEDKSYNVTIVMPLAEKCEYLFQTFVPGCQPGEFTLGGIKSGPGRTSGLVRVVSTNYNQHAMVFFKVVWQNREVFWVTLYGRTKELTSELKENFIRFSKSLGLPENHIVFPVPIDQCIDG | binds | 
2 | lipocalin mutein (SEQ ID NO: 3) (designed binder) QDSTSDLIPAPPLSKVPLQQNFQDNQFHGKWYVVGLAGNEVLREDKDPMKMWATIYELEEDKSYNVTIVMFLAKKCEYLFQTFVPGSQPGEFTLGDIKSSPGRTSGLVRVVSTNYNQHAMVFFKTVWQNREVFWITLYGRTKELTSELKENFIRFSKSLGLPENHIVFPVPIDQCIDG |  | binds
